No constants are given. Whether binding was seen depends on the method and setting. In cells and extracts the contact can be indirect. Some binding calls cover weakened binding; strength is not graded here. Tags and fused reporters may be left off the sequences shown.
B1: Flag-PARP11 (protein, UniProt Q9NR21 1-338)
chain: MWEANPEMFHKAEELFSKTTNNEVDDMDTSDTQWGWFYLAECGKWHMFQPDTNSQCSVSSEDIEKSFKTNPCGSISFTTSKFSYKIDFAEMKQMNLTTGKQRLIKRAPFSISAFSYICENEAIPMPPHWENVNTQVPYQLIPLHNQTHEYNEVANLFGKTMDRNRIKRIQRIQNLDLWEFFCRKKAQLKKKRGVPQINEQMLFHGTSSEFVEAICIHNFDWRINGIHGAVFGKGTYFARDAAYSSRFCKDDIKHGNTFQIHGVSLQQRHLFRTYKSMFLARVLIGDYINGDSKYMRPPSKDGSYVNLYDSCVDDTWNPKIFVVFDANQIYPEYLIDFH
B2: EGFP-PARP11 WWE domain (domain or fragment, UniProt Q9NR21 22-106)
chain: NEVDDMDTSDTQWGWFYLAECGKWHMFQPDTNSQCSVSSEDIEKSFKTNPCGSISFTTSKFSYKIDFAEMKQMNLTTGKQRLIKR

Chains of the proteins cited; added tags and fusions are not shown.
UniProt Q9H0J9: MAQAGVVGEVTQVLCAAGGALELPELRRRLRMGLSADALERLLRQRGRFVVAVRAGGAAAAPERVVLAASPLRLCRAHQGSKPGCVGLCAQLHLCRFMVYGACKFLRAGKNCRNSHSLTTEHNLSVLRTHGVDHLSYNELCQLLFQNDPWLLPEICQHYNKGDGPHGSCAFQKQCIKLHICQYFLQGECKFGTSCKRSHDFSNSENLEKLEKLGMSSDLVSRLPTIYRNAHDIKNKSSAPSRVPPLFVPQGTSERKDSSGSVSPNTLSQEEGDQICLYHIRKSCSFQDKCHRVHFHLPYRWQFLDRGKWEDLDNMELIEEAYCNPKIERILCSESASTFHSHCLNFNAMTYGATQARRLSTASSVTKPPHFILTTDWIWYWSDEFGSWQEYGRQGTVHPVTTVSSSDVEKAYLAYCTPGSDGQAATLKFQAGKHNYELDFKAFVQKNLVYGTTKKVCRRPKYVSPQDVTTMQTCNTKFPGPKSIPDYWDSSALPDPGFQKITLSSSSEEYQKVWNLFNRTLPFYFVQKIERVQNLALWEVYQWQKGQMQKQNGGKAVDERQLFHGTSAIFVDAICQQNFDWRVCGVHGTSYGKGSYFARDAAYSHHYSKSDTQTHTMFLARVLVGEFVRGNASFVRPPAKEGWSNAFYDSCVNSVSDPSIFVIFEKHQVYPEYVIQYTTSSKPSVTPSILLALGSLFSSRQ

What was measured:
[1] = target: GFP-PARP12 (UniProt Q9H0J9); test: co-IP; HEK293T cells co-transfected with the tagged plasmids; extracted 30 h after transfection in 50 mM tris-HCl pH 7.5, 150 mM NaCl, 5 mM EDTA, 1% Triton-X100; immunoprecipitated with Sepharose beads bound to anti-Flag, anti-HA, anti-His or anti-GFP antibodies at 4 °C overnight; washed four times (0.2% Triton-X100); Western blotting
[2] = target: HA-PARP12 (UniProt Q9H0J9); test: as above

Binder	binding [1]	binding [2]
B1	binds	
B2		binds

Source: paper PMC8240438
